Construct, isoform or probe ends are uncertain for at least one entry. Weaker means in comparison with the reference protein, sequence or condition of that experiment.
Target: Ded1-His6 (UniProt P06634)
Test: competition (magnetic tweezers displacement assay)
Conditions: 1 mM ATP, 10 nM Ded1, against 200 nM 5'ss-11 bp RNA, relatively poor competitor, much higher concentrations needed, Fhold 7 pN, 10 nM Ded1, 1 mM ATP, recombinant protein, protein details: His6 (pET22b)

Sequences of proteins named here, by UniProt entry; tags and fusion partners are left off. A change or cut given only in a name is not applied to a line headed by its entry.
UniProt P06634: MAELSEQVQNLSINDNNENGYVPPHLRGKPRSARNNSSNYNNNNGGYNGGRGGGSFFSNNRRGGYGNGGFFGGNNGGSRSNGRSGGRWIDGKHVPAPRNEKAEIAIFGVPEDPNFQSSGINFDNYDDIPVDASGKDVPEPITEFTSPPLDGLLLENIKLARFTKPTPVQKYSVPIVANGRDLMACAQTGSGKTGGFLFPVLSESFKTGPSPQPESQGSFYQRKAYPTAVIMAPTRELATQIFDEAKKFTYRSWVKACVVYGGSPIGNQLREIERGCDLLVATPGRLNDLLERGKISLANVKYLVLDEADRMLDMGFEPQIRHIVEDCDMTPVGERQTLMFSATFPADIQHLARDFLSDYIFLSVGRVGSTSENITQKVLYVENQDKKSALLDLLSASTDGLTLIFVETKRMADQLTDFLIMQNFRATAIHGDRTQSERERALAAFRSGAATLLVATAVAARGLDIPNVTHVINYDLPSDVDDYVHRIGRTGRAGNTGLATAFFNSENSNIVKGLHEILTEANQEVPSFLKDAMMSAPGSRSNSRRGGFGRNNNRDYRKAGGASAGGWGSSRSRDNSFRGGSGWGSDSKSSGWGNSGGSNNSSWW

Sequence: UCAUACUUUUCUUUUCUUUUCCAUC / GAUGGAAAAGAAAAGAAAAGUAUGA [dsRNA (RNA01/RNA02)]
- binding result: binds more weakly

— publication PMC6468243, “Mechanistic characterization of the DEAD-box RNA helicase Ded1 from yeast as revealed by a novel technique using single-molecule magnetic tweezers”
